Patent US20140038989A1, “TETRAHYDROPYRAZOLO [1,5-A] PYRIMIDINE AS ANTI-TUBERCULOSIS COMPOUNDS” (Glaxo Group Limited, priority 2011, published 2014)
Some of these results come from one statement about several compounds together. For at least one compound, name, drawing or mass did not settle the structure.

Tested on: Mycobacterium tuberculosis H37Rv
Experiment: Mycobacterium tuberculosis H37Rv Inhibition Assay (Whole Cell Assay)
Assay type: cell-based
Conditions: H37Rv strain (ATCC25618), Middlebrook 7H9, six days at 37° C., resazurin fluorescence after 48 hours

CCc1ccc([C@H]2C[C@@H](C(F)(F)F)n3ncc(C(=O)NCc4ccc(C)s4)c3N2)cc1 (relative stereo) [Example 61, Cis-5-(4-ethylphenyl)-N-[(1,5-methyl-2-thienyl)methyl]-7-(trifluoromethyl)-4,5,6,7-tetrahydropyrazolo[1,5-a]pyrimidine-3-carboxamide]
MIC value: ≤ 1 µM
